At least one structure is not confirmed: it was looked up by name or label, or the drawing left a doubt.
How the values were obtained:
[1] = tested on: skin cancers; experiment: In vivo fluorescence kinetics in a human subject with skin cancers (tumor and normal sites); settings: post injection, 0.4 mg/kg SnET2, human subject, FIG. 3
Method: FIG. 1 presents data from an actual human subject injected with SnET2 for the treatment of a number of skin cancers. A number of normal i.e. control sites, and tumor sites were measured prior to the SnET2 injection, (0.4 mg/kg) and at various times post injection. […] In summary, it is clear from the data provided that the method employing the measurement of the intensity of the exogenous chromophore fluorescence to the autofluorescence of a tissue provide a more accurate means for measuring the pharmacokinetics of an exogenous fluorescing chromophore in vivo. The finding is novel and to the inventor's knowledge has not been taught or acknowledged by others either in a patent or publication. Though the method was discovered and developed during the performance of work associated with photodynamic diagnosis and therapy, the utilization of the present method extends to other types of phototherapy. Any application requiring the in vivo monitoring of rate of change of concentration of a fluorescence chromophore in a tissue could use the present method. For example the in vivo pharmacokinetics of fluorescence labeled monoclonal antibodies for diagnostic or therapeutic application, and certain fluorescent antibiotics such as tetracycline, detection of highly proliferating atherosclerosis, among others. […]

[2] = cited from earlier work

CCOC(=O)C1=Cc2c3nc(cc4nc(cc5[n-]c(cc6[n-]c2c(C)c6CC)c(C)c5CC)C(C)=C4CC)[C@@H](C)[C@]13CC.[Cl-].[Cl-].[Sn] (racemic) [SnET2, tin ethyl etiopurpurin]
optimum time for maximal uptake [1]: 24 h | emission peak [2]: 670 nm | fluorescence quantum yield [2]: 0.01 | maximum absorption/excitation [2]: 440 nm

Reference: US5572996A, “In vivo pharmacokinetics of photosensitive drugs and method” (PDT Systems, Inc., priority 1996, dated 1996)
